{"source": "PubChem BioAssay AID504808 (Drosophila RNAi Screening Center, 2011)", "test": "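Chromatin factors that keep E2F targets switched off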 (primary screen)", "cell system": "Drosophila S2 cells", "reagents": "long dsRNA against Drosophila genes", "measurement": "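Dual luciferase plate measurements; E2F-specific signal taken as firefly over Renilla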", "scale": "E2F firefly: higher = more E2F reporter activity; Renilla normaliser: higher = more normaliser reporter signal", "call rule": "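Called active if the normalised E2F reporter went up by over 50%; the cutoff is arbitrary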", "note": "In all, the deposit lists about 21,000 reagents; below is a random part of those with a known target gene and a result. In the full data, 18 (0.084%) are marked active. 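Raw counts without plate normalisation, one of two replicates; the ratio scores behind the calls were not deposited.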 A number with no mark means an inactive call. The numbers tell different reagents against one gene apart. Not given: the amount of reagent, the time to read-out."}
{"predicted target": "Vha100-3 (GeneID 246543)", "reagent no.": 1, "E2F firefly, rep 1": 1.64e5, "Renilla normaliser, rep 1": 7114}
{"predicted target": "CG11588 (GeneID 39347)", "reagent no.": 1, "E2F firefly, rep 1": 1.30e5, "Renilla normaliser, rep 1": 4876}
{"predicted target": "CG11588 (GeneID 39347)", "reagent no.": 2, "E2F firefly, rep 1": 1.39e5, "Renilla normaliser, rep 1": 7385}
{"predicted target": "CG10494 (GeneID 37453)", "reagent no.": 1, "E2F firefly, rep 1": 73903, "Renilla normaliser, rep 1": 3054}
{"predicted target": "CG8407 (GeneID 36303)", "reagent no.": 1, "E2F firefly, rep 1": 82707, "Renilla normaliser, rep 1": 3560}
{"predicted target": "wus (GeneID 32683)", "reagent no.": 1, "E2F firefly, rep 1": 1.65e5, "Renilla normaliser, rep 1": 5514}
{"predicted target": "Traf6 (GeneID 31746)", "reagent no.": 1, "E2F firefly, rep 1": 1.19e5, "Renilla normaliser, rep 1": 5400}
{"predicted target": "Cyp317a1 (GeneID 36667)", "reagent no.": 1, "E2F firefly, rep 1": 1.02e5, "Renilla normaliser, rep 1": 3752}
{"predicted target": "PIG-A (GeneID 37020)", "reagent no.": 1, "E2F firefly, rep 1": 71072, "Renilla normaliser, rep 1": 3488}
{"predicted target": "CG14511 (GeneID 43445)", "reagent no.": 1, "E2F firefly, rep 1": 1.26e5, "Renilla normaliser, rep 1": 6238}
{"predicted target": "GstT1 (GeneID 35995)", "reagent no.": 1, "E2F firefly, rep 1": 1.42e5, "Renilla normaliser, rep 1": 5010}
{"predicted target": "CG31189 (GeneID 42487)", "reagent no.": 1, "E2F firefly, rep 1": 1.45e5, "Renilla normaliser, rep 1": 7788}
{"predicted target": "CG33333 (GeneID 2768672)", "reagent no.": 1, "E2F firefly, rep 1": 89307, "Renilla normaliser, rep 1": 2582}
{"predicted target": "Rbf (GeneID 31027)", "reagent no.": 1, "E2F firefly, rep 1": "4290 (active)", "Renilla normaliser, rep 1": 1016}
{"predicted target": "lncRNA:CR32368 (GeneID 317997)", "reagent no.": 1, "E2F firefly, rep 1": 1.31e5, "Renilla normaliser, rep 1": 4525}
{"predicted target": "CG8526 (GeneID 41208)", "reagent no.": 1, "E2F firefly, rep 1": 1.62e5, "Renilla normaliser, rep 1": 7129}
{"predicted target": "CG11131 (GeneID 40511)", "reagent no.": 1, "E2F firefly, rep 1": 1.47e5, "Renilla normaliser, rep 1": 7182}
{"predicted target": "drm (GeneID 49638)", "reagent no.": 1, "E2F firefly, rep 1": 1.34e5, "Renilla normaliser, rep 1": 5260}
{"predicted target": "kat-60L1 (GeneID 40715)", "reagent no.": 1, "E2F firefly, rep 1": 68734, "Renilla normaliser, rep 1": 3601}

A stretch taken from the entries so far:
{"predicted target": "lncRNA:CR32368 (GeneID 317997)", "reagent no.": 1, "E2F firefly, rep 1": 1.31e5, "Renilla normaliser, rep 1": 4525}
{"predicted target": "CG8526 (GeneID 41208)", "reagent no.": 1, "E2F firefly, rep 1": 1.62e5, "Renilla normaliser, rep 1": 7129}
